Holding throughout (experiment): co-IP; HEK 293T cells co-transfected 48 h with FLAG-GBP5 constructs and MYC-tagged OST subunits; lysates immunoprecipitated with anti-FLAG on Dynabeads Protein G overnight at 4°C; washes include Pierce IP Lysis Buffer with 500 mM NaCl; anti-MYC blot
Test [1] concerns the target T1, FLAG-tagged GBP5 (guanylate-binding protein 5) (UniProt Q96PP8).
T1 sequence: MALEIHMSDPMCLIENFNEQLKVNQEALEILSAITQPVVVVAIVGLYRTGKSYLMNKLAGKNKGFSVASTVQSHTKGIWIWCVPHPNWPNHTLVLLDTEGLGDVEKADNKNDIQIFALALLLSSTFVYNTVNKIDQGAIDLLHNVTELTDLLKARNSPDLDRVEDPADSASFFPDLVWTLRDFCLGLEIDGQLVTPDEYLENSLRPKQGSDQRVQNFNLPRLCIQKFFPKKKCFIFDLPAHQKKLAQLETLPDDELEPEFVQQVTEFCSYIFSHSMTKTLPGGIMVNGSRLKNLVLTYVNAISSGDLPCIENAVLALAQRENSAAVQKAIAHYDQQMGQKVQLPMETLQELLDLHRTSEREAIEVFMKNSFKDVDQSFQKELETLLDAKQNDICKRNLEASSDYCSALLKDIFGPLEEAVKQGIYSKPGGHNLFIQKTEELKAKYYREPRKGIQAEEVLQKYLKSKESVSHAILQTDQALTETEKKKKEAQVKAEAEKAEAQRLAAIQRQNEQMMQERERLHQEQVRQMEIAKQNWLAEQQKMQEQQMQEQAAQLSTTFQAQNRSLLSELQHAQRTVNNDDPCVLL

The target in test [2] is FLAG-GBP5 mutant M1 (deletion of the large GTPase (LG) domain).
The target of test [3] is FLAG-GBP5 mutant M4 (deletion of the GTPase effector domain (GED)).

The source of these data is paper PMC12691697.

These are yes or no findings as the source states them, for the method shown. In cells and extracts the contact can be indirect. For some of these results: Binding calls can cover weak binding; strength is not graded here. Where a sequence is shown, tags or fusion partners need not be part of it.

Turning to “MYC-tagged DDOST deleted for its C-terminal cytoplasmic tail (domain or fragment)”, the binding result in test [1] is reported as “no binding”.

As for “MYC-tagged RPN2 deleted for its C-terminal cytoplasmic tail (domain or fragment)”, the binding entry in test [1] is “no binding”.

Take “MYC-tagged RPN1 deleted for its C-terminal cytoplasmic tail (domain or fragment)”: in test [1], the binding entry was “no binding”.

B1: MYC-tagged DDOST (protein, UniProt P39656 43-456)
chain: SGPRTLVLLDNLNVRETHSLFFRSLKDRGFELTFKTADDPSLSLIKYGEFLYDNLIIFSPSVEDFGGNINVETISAFIDGGGSVLVAASSDIGDPLRELGSECGIEFDEEKTAVIDHHNYDISDLGQHTLIVADTENLLKAPTIVGKSSLNPILFRGVGMVADPDNPLVLDILTGSSTSYSFFPDKPITQYPHAVGKNTLLIAGLQARNNARVIFSGSLDFFSDSFFNSAVQKAAPGSQRYSQTGNYELAVALSRWVFKEEGVLRVGPVSHHRVGETAPPNAYTVTDLVEYSIVIQQLSNGKWVPFDGDDIQLEFVRIDPFVRTFLKKKGGKYSVQFKLPDVYGVFQFKVDYNRLGYTHLYSSTQVSVRPLQHTQYERFIPSAYPYYASAFSMMLGLFIFSIVFLHMKEKEKSD
With B1, the binding entry in test [2] and in test [3] was “binds” in each case.

B2: MYC-tagged RPN1 (protein, UniProt P04843 24-607)
chain: ASSEAPPLINEDVKRTVDLSSHLAKVTAEVVLAHLGGGSTSRATSFLLALEPELEARLAHLGVQVKGEDEEENNLEVRETKIKGKSGRFFTVKLPVALDPGAKISVIVETVYTHVLHPYPTQITQSEKQFVVFEGNHYFYSPYPTKTQTMRVKLASRNVESYTKLGNPTRSEDLLDYGPFRDVPAYSQDTFKVHYENNSPFLTITSMTRVIEVSHWGNIAVEENVDLKHTGAVLKGPFSRYDYQRQPDSGISSIRSFKTILPAAAQDVYYRDEIGNVSTSHLLILDDSVEMEIRPRFPLFGGWKTHYIVGYNLPSYEYLYNLGDQYALKMRFVDHVFDEQVIDSLTVKIILPEGAKNIEIDSPYEISRAPDELHYTYLDTFGRPVIVAYKKNLVEQHIQDIVVHYTFNKVLMLQEPLLVVAAFYILFFTVIIYVRLDFSITKDPAAEARMKVACITEQVLTLVNKRIGLYRHFDETVNRYKQSRDISTLNSGKKSLETEHKALTSEIALLQSRLKTEGSDLCDRVSEMQKLDAQVKELVLKSAVEAERLVAGKLKKDTYIENEKLISGKRQELVTKIDHILDAL
Take B2: the binding entry in test [2] and in test [3] was “binds” throughout.
